# Data as given in PubChem BioAssay AID1259254 (NCATS, 2017).
# Test: 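Gene knock-downs that lead to re-replication, shown by excess G2 DNA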 (primary screen)
# System: human HCT116 colorectal cancer cells
# Reagent: single siRNA against human genes
# Timing: 3 days
# Detection: 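Nuclei stained with Hoechst and imaged; cell-cycle phase assigned by DNA content; G2 share scaled per plate, non-targeting siRNA 0%, GMNN siRNA 100%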
# Scale: G2 robust z-score: higher = more G2 cells, more excess DNA replication
# Rule for the call: 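An siRNA counts as active if its G2 robust z-score lies at least 5 MADs above the screen median; here such calls match roughly 38% of GMNN control or more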
# The whole screen tested about 59,000 reagents; shown is an unselected part. In the full data, about 1,550 (2.6%) were called active. 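G2 share is only a proxy for re-replication; each gene was hit by three separate siRNAs, and active genes were retested.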 Entries without a mark were called inactive. Further read-outs or replicates are left out here. The record does not give: the amount of reagent.
gene symbol,PubChem SID,G2 robust z-score
ELOVL2 (ELOVL fatty acid elongase 2),SID160742444,0.433
ELOVL2 (ELOVL fatty acid elongase 2),SID160742445,0.877
ELOVL2 (ELOVL fatty acid elongase 2),SID160742446,1.71
RELCH,SID160746413,-0.342
RELCH,SID160746414,-0.902
RELCH,SID160746415,4.28
RPLP0 (ribosomal protein lateral stalk subunit P0),SID160733717,4.57
RPLP0 (ribosomal protein lateral stalk subunit P0),SID160776285,2.81
RPLP0 (ribosomal protein lateral stalk subunit P0),SID160776292,3.45
PROK1 (prokineticin 1),SID160752226,0.641
PROK1 (prokineticin 1),SID160752227,0.51
PROK1 (prokineticin 1),SID160752228,-0.841
TENM3 (teneurin transmembrane protein 3),SID160744157,0.262
TENM3 (teneurin transmembrane protein 3),SID160744158,-0.348
TENM3 (teneurin transmembrane protein 3),SID160744159,3.82
DSCC1,SID160748590,0.14
DSCC1,SID160748591,-0.847
DSCC1,SID160748593,-0.634
DERL2 (derlin 2),SID160739840,1.3
DERL2 (derlin 2),SID160739841,3.25
DERL2 (derlin 2),SID160739842,11.4 (active)
"FLI1 (Fli-1 proto-oncogene, ETS transcription factor)",SID160766373,-0.432
"FLI1 (Fli-1 proto-oncogene, ETS transcription factor)",SID160766381,-0.25
"FLI1 (Fli-1 proto-oncogene, ETS transcription factor)",SID160766392,-0.555
KLHL42 (kelch like family member 42),SID160746231,0.943
KLHL42 (kelch like family member 42),SID160746232,-0.366
KLHL42 (kelch like family member 42),SID160746233,2.04
BET1 (Bet1 golgi vesicular membrane trafficking protein),SID160728069,-0.836
BET1 (Bet1 golgi vesicular membrane trafficking protein),SID160728070,1.6
BET1 (Bet1 golgi vesicular membrane trafficking protein),SID160728071,4.93
SEZ6L2 (seizure related 6 homolog like 2),SID160737977,0.792
SEZ6L2 (seizure related 6 homolog like 2),SID160737978,0.141
SEZ6L2 (seizure related 6 homolog like 2),SID160737979,-0.421
MT1E (metallothionein 1E),SID160733448,6.18 (active)
MT1E (metallothionein 1E),SID160733449,0.659
MT1E (metallothionein 1E),SID160777502,4.2
ZNF7 (zinc finger protein 7),SID160718989,-0.597
ZNF7 (zinc finger protein 7),SID160718990,-0.272
ZNF7 (zinc finger protein 7),SID160718991,-0.781
CDK2AP2 (cyclin dependent kinase 2 associated protein 2),SID160727909,-0.689
CDK2AP2 (cyclin dependent kinase 2 associated protein 2),SID160727919,0.707
CDK2AP2 (cyclin dependent kinase 2 associated protein 2),SID160727926,1.01
TMEM91 (transmembrane protein 91),SID160768425,0.0887
TMEM91 (transmembrane protein 91),SID160768426,-0.91
TMEM91 (transmembrane protein 91),SID160768427,0.197
MAPK6 (mitogen-activated protein kinase 6),SID160714985,-1.71
MAPK6 (mitogen-activated protein kinase 6),SID160714986,-1.27
MAPK6 (mitogen-activated protein kinase 6),SID160714987,-0.215

8 entries already listed, arranged by “G2 robust z-score”, high to low.
gene symbol,PubChem SID,G2 robust z-score
TENM3 (teneurin transmembrane protein 3),SID160744159,3.82
RPLP0 (ribosomal protein lateral stalk subunit P0),SID160776292,3.45
RPLP0 (ribosomal protein lateral stalk subunit P0),SID160776285,2.81
PROK1 (prokineticin 1),SID160752226,0.641
PROK1 (prokineticin 1),SID160752227,0.51
TENM3 (teneurin transmembrane protein 3),SID160744157,0.262
TENM3 (teneurin transmembrane protein 3),SID160744158,-0.348
PROK1 (prokineticin 1),SID160752228,-0.841
